The values below come from the supplement of paper PMC8256030.

Each structure is given as a SMILES string. “And” between values parts separate entries of the source, which are not always exact repeats. Equal entries are not always repeated. Structures can show the parent of a compound that is named as a salt. The list shows a part of the results. Single values are uncertain here, since repeats match poorly.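 HEK293T cells were given each compound shortly before transfection with a reporter in which red mCherry is followed by the SARS-CoV-2 frameshift element and then GFP in the −1 frame, so GFP appears only after frameshifting.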

The assay concerns HEK293T. In words: percent viability (nuclei count) relative to control; higher = more viable cells. Particulars: 10 µM; 24 h.
As for `C[C@]12CC[C@@H]3c4ccc(OC(=O)c5ccccc5)cc4CC[C@H]3[C@@H]1CC[C@@H]2O` [estradiol benzoate], the percent viability worked out at 191%.

For the molecule `CC(C)CCC[C@@H](C)[C@H]1CC(=O)C2=C3CC[C@H]4C[C@@H](O)CC[C@]4(C)[C@H]3CC[C@@]21C` [colestolone], the percent viability is 358%.

`CCCCC[C@H](O)/C=C/[C@H]1[C@H](O)CC(=O)[C@@H]1C/C=C\CCCC(=O)O` [dinoprostone]: the percent viability is 183% and 242%.

As to `Nc1nc(O)c2ncn(CCC(CO)CO)c2n1` [penciclovir], the percent viability was 259%.

Turning to `O=C1O[C@H]([C@@H](O)CO)C(O)=C1O` [ascorbic acid], the percent viability was 146%.

Regarding `CCN(CC)CCOc1ccc(C(O)(Cc2ccc(Cl)cc2)c2ccc(C)cc2)cc1` (stereo not given) [triparanol], the percent viability stood at 261%.

On to `NS(=O)(=O)c1ccc(NC(=O)CCC(=O)O)cc1` [sulfasuccinamide], for which the percent viability was determined as 178%.

Regarding `CC(=O)OCC(=O)[C@@]1(O)CC[C@H]2[C@@H]3CCC4=CC(=O)CC[C@]4(C)[C@H]3C(=O)C[C@@]21C`, the percent viability is 88.1%.

Turning to `CN(C)CCOC(c1ccccc1)c1ccccc1.Cn1c(=O)c2[nH]c(Cl)nc2n(C)c1=O` [dimenhydrinate], the percent viability came out at 173%.

For `CN1CCN(c2ncc(-c3cc(Cl)cc(Cl)c3Cl)c(N)n2)CC1` [sipatrigine], the percent viability amounted to 133%.

With `C/C=C(/C)C(=O)O[C@H]1[C@H](OC(C)=O)[C@@]2(CO)C(CC1(C)C)C1=CCC3[C@@]4(C)CCC(O[C@@H]5O[C@H](C(=O)O)[C@@H](O[C@@H]6O[C@H](CO)[C@@H](O)[C@H](O)[C@H]6O)[C@H](O)[C@H]5O[C@@H]5O[C@H](CO)[C@@H](O)[C@H](O)[C@H]5O)[C@](C)(CO)C4CC[C@@]3(C)[C@]1(C)C[C@H]2O.C/C=C(\C)C(=O)O[C@H]1[C@H](OC(C)=O)[C@@]2(CO)C(CC1(C)C)C1=CCC3[C@@]4(C)CCC(O[C@@H]5O[C@H](C(=O)O)[C@@H](O[C@@H]6O[C@H](CO)[C@@H](O)[C@H](O)[C@H]6O)[C@H](O)[C@H]5O[C@@H]5O[C@H](CO)[C@@H](O)[C@H](O)[C@H]5O)[C@](C)(CO)C4CC[C@@]3(C)[C@]1(C)C[C@H]2O` (stereo not given in full), the percent viability amounted to 134%.

In the case of `C[C@]12CC[C@@H]3c4ccc(O)cc4C[C@@H](CCCCCCCCC[S+]([O-])CCCC(F)(F)C(F)(F)F)[C@H]3[C@@H]1CC[C@@H]2O` (stereo not given in full), the percent viability is 350%.

As to `CCOc1ccccc1OCC(O)CO` (stereo not given) [guaietolin], the percent viability was determined as 182%.

In the case of `CC#CCn1c(N2CCC[C@@H](N)C2)nc2c1c(=O)n(Cc1nc(C)c3ccccc3n1)c(=O)n2C`, the percent viability came to 403%.

`CCNC(=O)[C@@H]1CCCN1C(=O)[C@H](CCCNC(=N)N)NC(=O)[C@H](CC(C)C)NC(=O)[C@@H](Cc1cn(Cc2ccccc2)cn1)NC(=O)[C@H](Cc1ccc(O)cc1)NC(=O)[C@H](CO)NC(=O)[C@H](Cc1c[nH]c2ccccc12)NC(=O)[C@H](Cc1cnc[nH]1)NC(=O)[C@@H]1CCC(=O)N1` [histrelin]: the percent viability came out at 130%.

`Cn1c(C#N)ccc1-c1ccc2c(c1)C(C)(C)OC(=S)N2` [tanaproget]: the percent viability amounted to 95.6%.

For the molecule `CO[C@H]1/C=C/O[C@@]2(C)Oc3c(C)c(O)c4c(O)c(c(/C=N/N5CCN(C6CCCC6)CC5)c(O)c4c3C2=O)NC(=O)/C(C)=C\C=C\[C@H](C)[C@H](O)[C@@H](C)[C@@H](O)[C@@H](C)[C@H](OC(C)=O)[C@@H]1C` [Priftin], the percent viability is 215%.

As to `CC(C)NCC(O)c1ccc(NS(C)(=O)=O)cc1` (stereo not given), the percent viability worked out at 188%.

In the case of `CN[C@@H]1[C@@H](O)[C@@H](O[C@@H]2[C@@H](O)[C@H](O[C@H]3OC(CN)=CC[C@H]3N)[C@@H](N)C[C@H]2N)OC[C@]1(C)O`, the percent viability was found to be 148%.

In the case of `CC(=O)Oc1ccc(C(=C2CCCCC2)c2ccc(OC(C)=O)cc2)cc1` [cyclofenil], the percent viability is 72.8%.

In the case of `CC(C)(Oc1ccc(Cl)cc1)C(=O)OCCNC(=O)c1cccnc1` [picafibrate], the percent viability was 116%.

Take `CN1CCN(CCCCN2C(=O)CN(/N=C/c3ccc(-c4ccc(Cl)cc4)o3)C2=O)CC1` [azimilide]: the percent viability worked out at 147%.

Turning to `C[N+](C)(C)C[C@H](O)CC(=O)[O-]` [levocarnitine], the percent viability is 250%.

As for `COc1cc([C@@H]2c3cc4c(cc3[C@@H](O[C@@H]3O[C@@H]5CO[C@@H](c6cccs6)O[C@H]5[C@H](O)[C@H]3O)[C@H]3COC(=O)[C@H]23)OCO4)cc(OC)c1O` [Vumon], the percent viability is 75.1%.

On to `CN(CCOP(=O)(O)O)C(=N)N` [creatinolfosfate], for which the percent viability came to 164%.

Regarding `CC(=O)O[C@]1(C(C)=O)CC[C@H]2[C@@H]3C=C(C)C4=CC(=O)CC[C@]4(C)[C@H]3CC[C@@]21C` [Megestrol acetate], the percent viability came to 448%.

`CC(C)(C)CC(C)(C)c1ccc(OCCO)cc1` [octoxinol]: the percent viability is 161%.

As to `N=C(N=C(N)N)N1CCOCC1` [Moroxydine·HCl], the percent viability was 17.8%.

For the molecule `CC(C)(C)C(O)/C=C/c1ccc2c(c1)OCO2` (stereo not given) [stiripentol], the percent viability is 296%.

As for `CN(C)CCOC(c1ccccc1)c1ccccc1` [diphenhydramine], the percent viability was 275% and 144%.
